# PubChem BioAssay AID652259, Drosophila RNAi Screening Center – 2013
# Test: 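Identify new Wingless signalling regulators in fly cells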 (primary screen)
# Cell system: Drosophila clone 8 imaginal disc epithelial cells
# Reagents: long dsRNA against Drosophila genes
# Conditions: pathway stimulated by co-transfected Wingless expression plasmid
# Measured: 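Firefly luciferase from a tcf-site Wingless reporter, measured alongside co-transfected Renilla luciferase that tracks transfection; pathway stimulated by a Wingless plasmid; the firefly-to-Renilla ratio is not deposited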
# Direction: firefly reporter light: higher = more Wg reporter light, before normalisation; Renilla control light: higher = more transfected or surviving cells
# Rule for the call: 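Strong candidates differ from their plate mean by at least two out of four per-plate statistical tests; weak candidates meet just one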
# Meaning of the calls: active = candidate regulator (raises or lowers reporter); inactive = not a candidate
# The screen tested about 22,000 reagents; below is an unselected part of those with a known target gene and a result. Of all reagents, 233 (1.1%) were called active. 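Light values are raw, unnormalised plate reads; the ratio scores behind the reporter calls were not deposited.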 Entries without a mark were called inactive. Names joined by + are all predicted targets of the reagent. The record does not give: the amount of reagent, the time to read-out, the dose of the treatment.
gene knocked down,dsRNA,"firefly reporter light, replicate 1","firefly reporter light, replicate 2","Renilla control light, replicate 1","Renilla control light, replicate 2"
Tmem214,DRSC02924,2051,5367,893,2891
Tmem214,DRSC02925,3141,7076,1338,4690
Obp99a,DRSC15303,3450,,2342,
Vha68-1,DRSC03470,3216,8770,1546,4296
Vti1a,DRSC08563,13688,,4133,
Ptp61F,DRSC08683,5381,,1752,
CG15221,DRSC19659,14379,,8005,
CG15387,DRSC00401,2828,4951,994,2343
Upf3,DRSC04092,7586,,3024,
CG13171,DRSC06299,5841,,2694,
CecA2,DRSC16604,4384,,2249,
CG14115,DRSC10118,7741,,2960,
CG17780 + CG17781,DRSC15266,15052,,11155,
dod,DRSC20577,25931,,13716,
CG31415,DRSC22409,5.48e5,5.48e5,1.97e5,1.80e5
elav,DRSC18772,2458,5033,966,1971
CG8292,DRSC03082,3520,7483,930,2651
Or9a,DRSC18692,18299,,8117,
isoQC,DRSC11790,8433,,2796,
Cox17,DRSC20145,29888,,18677,
CG9801,DRSC16568,3741,,1280,
Hr39,DRSC03346,6308,,1783,
Plp,DRSC10006,7288,,3074,
Plp,DRSC10333,4512,,1782,
Plp,DRSC10700,2759,,1200,
RhoBTB,DRSC11877,3653,,1490,
Nos,DRSC03381,9035,,3289,
CG9107,DRSC03138,11366,,4128,
CG9512,DRSC20189,2091,7570,1027,3024
hoe2,DRSC00459,2134,5180,1204,1001
CG13170,DRSC06298,4464,,2376,
Ir7f,DRSC18012,16907,,8560,
Tango6,DRSC02671,8391,,2098,
CG9406,DRSC04552,2981,9351,660,4192
MED15,DRSC00267,7179,,2501,
CG18420,DRSC01954,1718,6532,1157,3253

3 consecutive reagents from above:
gene knocked down,dsRNA,"firefly reporter light, replicate 1","firefly reporter light, replicate 2","Renilla control light, replicate 1","Renilla control light, replicate 2"
Vha68-1,DRSC03470,3216,8770,1546,4296
Vti1a,DRSC08563,13688,,4133,
Ptp61F,DRSC08683,5381,,1752,

Continued:
gene knocked down,dsRNA,"firefly reporter light, replicate 1","firefly reporter light, replicate 2","Renilla control light, replicate 1","Renilla control light, replicate 2"
CG32855,DRSC13131,1988,,928,
Or85f,DRSC16769,12944,,3995,
CG34331,DRSC20679,17757,,10643,
CG32119,DRSC09248,5475,,2320,
CG32119,DRSC21462,5.17e5,6.86e5,2.32e5,1.95e5
Obp83ef,DRSC12268,19080,,3767,
Toll-9,DRSC11776,13458,,4556,
Hpr1,DRSC12296,6727,,2647,
ppan,DRSC17030,17043,,4876,
Prp18,DRSC16802,1707,6141,368,1864
CG14362,DRSC14824,15313,,3991,
ida,DRSC08163,7147,,2185,
ND-B17,DRSC01981,2723,5175,1021,3205
CG31296,DRSC13092,2090,,937,
CG13716,DRSC08325,2483,11961,1799,4945
CG13716,DRSC22815,4.63e5,5.61e5,2.00e5,2.58e5
rtet,DRSC14160,3898,9019,1793,3125
CG30161,DRSC22141,5.93e5,6.49e5,1.30e5,1.34e5
Hsp60A,DRSC20254,6987,10893,1353,3001
Tengl3,DRSC22288,4.45e5,5.24e5,1.59e5,1.70e5
Gr98d,DRSC14571,6364,,3084,
CG14667,DRSC12253,14653,,4144,
CG8501,DRSC07198,8425,,1450,
mRpL24,DRSC03113,11728,,4806,
Cdc6,DRSC10563,1965,,1538,
CG30026,DRSC05276,19269,,16043,
CG31809,DRSC01561,16979,,6982,
Dysb,DRSC10730,5622,,2562,
Kr-h2,DRSC03356,2315,6720,577,2424
CG11562,DRSC00316,3334,6725,1168,2473
ppk17,DRSC02252,2924,7653,972,3147
CG14441,DRSC17934,22224,,5158,
snsl,DRSC00543,3289,6729,1096,1104
CG30324,DRSC22655,6.77e5,6.17e5,2.31e5,80426
ste24c + CR30461 (retired record),DRSC05639,17746,,14952,
ste24c + CR30461 (retired record),DRSC07316,4904,,1677,
dmt,DRSC16932,25106,,3504,
